Results deposited as PubChem BioAssay AID686943 (Drosophila RNAi Screening Center, 2013).
Aim: 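Fly genes whose loss alters ERK activation after insulin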 (primary screen). Cells: Drosophila S2R+ haemocyte-like cells expressing YFP-tagged ERK (Rolled). Knock-down reagent: long dsRNA against Drosophila genes. Challenge: insulin stimulation versus unstimulated cells; dose and duration not given. Measurement: 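Per-plate z-scores of phospho-ERK immunostaining normalised to YFP-tagged ERK, measured with and without insulin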. Scale: replicate 1, z-score of dpERK with insulin and replicate 2, z-score of dpERK with insulin: higher = more active ERK per ERK-YFP after insulin; replicate 1, z-score of dpERK under basal conditions: higher = more basal active ERK per ERK-YFP; replicate 1, z-score of ERK-YFP with insulin: higher = more YFP-tagged ERK signal.
In all, the deposit lists about 23,000 reagents; shown is an unselected part of those with a known target gene and a result. 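Extra replicates exist only for a retested subset of genes; insulin dose and duration not given; both raised and lowered dpERK matter.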 Not given: the amount of reagent, the time to read-out.

target gene,amplicon,"replicate 1, z-score of dpERK with insulin","replicate 2, z-score of dpERK with insulin","replicate 1, z-score of dpERK under basal conditions","replicate 1, z-score of ERK-YFP with insulin"
Eb1,DRSC05016,1.35,0.25,0.11,-0.37
CG7227,DRSC03032,0.7,0.51,-0.14,0.36
Cht10,DRSC03766,0.52,0.07,0.28,-0.98
Cht10,DRSC03767,-0.02,-0.06,-0.27,-0.02
Cht10,DRSC03768,0.57,-0.12,-0.33,-0.17
SkpD,DRSC22208,0.46,-1.18,-0.39,0.06
clu,DRSC07181,-0.12,-1.37,0.24,-0.42
RpS9,DRSC11273,1.87,-1.77,-1.11,-5.76
mthl8,DRSC08211,-0.07,0.18,-0.36,0.4
mthl8,DRSC08311,0.12,0,-0.89,0.63
Duox,DRSC00571,-0.23,-0.37,-0.49,2.43
HINT1,DRSC00548,-0.69,-1.05,0.31,-0.03
Mcm10,DRSC03162,0,0.02,-0.11,0.31
udd,DRSC06720,0.41,0.6,-1.02,-0.54
CG42264,DRSC18074,-0.69,0,-0.04,-0.13
CG42264,DRSC18075,-0.23,0.01,-0.68,0.7
COX5A,DRSC16611,-1.17,-2.22,-1,4.5
dmpd,DRSC06092,-0.57,0,0.14,0.03
aurB,DRSC03548,0.84,0.39,-0.5,-1.28
Dph3,DRSC14923,0.2,0.28,0.31,0.34
CG7156,DRSC16207,0.4,-0.2,-0.04,0.76
CG31287,DRSC13138,-0.78,0.77,0.91,0.21
Snrk,DRSC07192,0.52,0.77,0.15,0.09

In a second layout: entries from further up.
target gene	amplicon	replicate 1, z-score of dpERK with insulin	replicate 2, z-score of dpERK with insulin	replicate 1, z-score of dpERK under basal conditions	replicate 1, z-score of ERK-YFP with insulin
CG7227	DRSC03032	0.7	0.51	-0.14	0.36
Cht10	DRSC03766	0.52	0.07	0.28	-0.98
Cht10	DRSC03767	-0.02	-0.06	-0.27	-0.02
